Source: PubChem BioAssay AID540256 (National Center for Advancing Translational Sciences (NCATS), 2011)
Screen size: about 300,000 compounds; about 3,700 (1.2%) were called active. Inconclusive results, whose numbers are uncertain, are shown with a selection of clear calls. The call rests on the fitted dose curve; tested in HEK293 cells. Where the call is inconclusive, the potency comes from a doubtful curve fit.

Assay: qHTS for Inhibitors of binding or entry into cells for Lassa Virus; further: nearly all actives have a fitted effect of over 50% in size
Details: Lassa virus pseudotype entry inhibition, cell reporter; activity change, negative = inhibition: at 37.9 µM (top of the series) unless noted
On the % scale 0 is the no-effect control and ±100 the full control effect; potency means the concentration at half of the fitted maximal effect.

Row | SMILES | Potency | activity change, negative = inhibition
1 | CC1=C(C(=O)OCC2CCCO2)C(c2ccccc2)NC(=O)N1 (stereo not drawn) | inconclusive: 8.2 µM [activator, partial curve, poor fit] | 
2 | O=C(NCc1ccco1)/C(=C/c1ccco1)NC(=O)c1ccco1 |  | inactive: 3.65% [at 46.1 µM]
3 | CCC(C)c1ccc(NC(=O)c2cccnc2)cc1 (stereo not drawn) | inconclusive: 29.1 µM [inhibitor, single point] | 
4 | CCOc1ccccc1NC(=O)C1=C(C)NC(=S)NC1c1cccs1 (stereo not drawn) | inconclusive: 20.6 µM [inhibitor, partial curve, poor fit] | 
5 | CCOC(=O)c1c(C)[nH]c(C)c1S(=O)(=O)N(C)CC(=O)Nc1ccc(C)cc1C |  | inactive: -15.9% [at 46.1 µM]
6 | CCN(CC)S(=O)(=O)c1ccc(N=Nc2cc(C)cc(Br)c2O)cc1 |  | inactive: -1.9%
7 | c1ccc(-c2noc(-c3cccc4ccccc34)n2)cc1 | inconclusive: 0.447 µM [activator, single point] | 
8 | CC(=O)Oc1ccc(-c2csc(Nc3cccc(C)n3)n2)cc1 | inconclusive: 35.5 µM [inhibitor, single point] | 
9 | CC(=O)c1c(C)[nH]c(C(=O)NCCN2CCC(C)CC2)c1C |  | inactive: 1.06%
10 | O=[N+]([O-])c1ccc(Nc2nc(N/N=C\c3ccc4c(c3)OCO4)nc(N3CCCCC3)n2)cc1 | inconclusive: 7.3 µM [inhibitor, partial curve] | 
11 | COc1ccc(/C(C)=N/Nc2ccc(F)cc2F)c(O)c1 | inconclusive: 35.5 µM [inhibitor, single point] | 
12 | COc1ccc(NC(=O)CSc2nnc(-c3cccs3)n2-c2ccccc2)cc1 | inconclusive: 22.4 µM [inhibitor, single point] | 
13 | CC1(C)COC(c2ccc3c(c2)OCO3)OC1 |  | inactive: 16.6% [at 46.1 µM]
14 | COc1ccc(-c2csc(N)n2)cc1 |  | inactive: -21.3%
15 | CCN(C(=O)COC(=O)/C=C/c1c(C)nn(-c2ccccc2)c1C)c1c(N)n(Cc2ccccc2)c(=O)[nH]c1=O | inconclusive: 35.5 µM [inhibitor, single point] | 
16 | Cc1ccc(NC(=O)c2ccc(OC(F)F)cc2)cc1S(=O)(=O)N(C)C |  | inactive: -22%
17 | Fc1ccc(-c2ccc(CNCc3ccccn3)o2)cc1 | inconclusive: 0.126 µM [inhibitor, full curve, poor fit] | 
18 | CCOc1ccc(-n2nc3ccc(NC(=O)c4ccc5c(c4)OCCO5)cc3n2)cc1 | inconclusive: 29.1 µM [inhibitor, single point] | 
19 | CCOc1ccc(/C=N/NC(=O)CC(=O)Nc2ccc(Cl)c(Cl)c2)cc1 | inconclusive: 12.6 µM [inhibitor, single point] | 
20 | O=C(NCc1ccccn1)c1ccc2nc(C3CCCCC3)oc2c1 |  | inactive: -4.74% [at 46.1 µM]
21 | COc1ccccc1CNC(=O)Cc1c[nH]c2ccccc12 |  | inactive: -19.7%
22 | N#CC1=C2C=Cc3ccccc3N2CCCC1=O |  | inactive: -0.377%
23 | COc1ccc(-c2nc3c(C#N)c[nH]n3c2NC2CCCC2)c(OC)c1 |  | inactive: -10% [at 46.1 µM]
24 | COc1cccc(-n2cc3c(=O)n(C)c(=O)n(C)c3c2)c1 | inconclusive: 5.62 µM [activator, single point] | 
25 | CCN(Cc1nc2cc(Cl)ccc2c(=O)[nH]1)C(=O)c1cc2c(s1)CCCCC2 |  | inactive: -9.81%

Molecules above that contain a carbonyl joined to an NH by a bond outside any ring:
Row | SMILES | Potency | activity change, negative = inhibition
2 | O=C(NCc1ccco1)/C(=C/c1ccco1)NC(=O)c1ccco1 |  | inactive: 3.65% [at 46.1 µM]
3 | CCC(C)c1ccc(NC(=O)c2cccnc2)cc1 (stereo not drawn) | inconclusive: 29.1 µM [inhibitor, single point] | 
4 | CCOc1ccccc1NC(=O)C1=C(C)NC(=S)NC1c1cccs1 (stereo not drawn) | inconclusive: 20.6 µM [inhibitor, partial curve, poor fit] | 
5 | CCOC(=O)c1c(C)[nH]c(C)c1S(=O)(=O)N(C)CC(=O)Nc1ccc(C)cc1C |  | inactive: -15.9% [at 46.1 µM]
9 | CC(=O)c1c(C)[nH]c(C(=O)NCCN2CCC(C)CC2)c1C |  | inactive: 1.06%
12 | COc1ccc(NC(=O)CSc2nnc(-c3cccs3)n2-c2ccccc2)cc1 | inconclusive: 22.4 µM [inhibitor, single point] | 
16 | Cc1ccc(NC(=O)c2ccc(OC(F)F)cc2)cc1S(=O)(=O)N(C)C |  | inactive: -22%
18 | CCOc1ccc(-n2nc3ccc(NC(=O)c4ccc5c(c4)OCCO5)cc3n2)cc1 | inconclusive: 29.1 µM [inhibitor, single point] | 
19 | CCOc1ccc(/C=N/NC(=O)CC(=O)Nc2ccc(Cl)c(Cl)c2)cc1 | inconclusive: 12.6 µM [inhibitor, single point] | 
20 | O=C(NCc1ccccn1)c1ccc2nc(C3CCCCC3)oc2c1 |  | inactive: -4.74% [at 46.1 µM]
21 | COc1ccccc1CNC(=O)Cc1c[nH]c2ccccc12 |  | inactive: -19.7%

Next part:

Row | SMILES | Potency | activity change, negative = inhibition
26 | CNC(=O)Oc1cccc(-c2cn3cc(OC(=O)NC)ccc3n2)c1 | inconclusive: 3.16 µM [activator, single point] | 
27 | CCCCn1c(N)c(N(CCOC)C(=O)CCS(=O)(=O)c2ccc(Cl)cc2)c(=O)[nH]c1=O |  | inactive: 1.02%
28 | O=C(NC1CCCC1)NS(=O)(=O)c1ccccc1Cl |  | inactive: 0.822%
29 | CCOC(=O)c1ccc(NC(=O)CCc2nc(-c3ccc(C)cc3)no2)cc1 | inconclusive: 29.1 µM [inhibitor, single point] | 
30 | CCOc1ccc(N2C(=O)CS/C2=C(\C(Cl)=C(Cl)Cl)[N+](=O)[O-])cc1 | inconclusive: 35.5 µM [inhibitor, single point] | 
31 | CCc1cc(C(=O)Nc2cnn(Cc3ccccc3C)c2)no1 | inconclusive: 11.2 µM [inhibitor, partial curve, poor fit] | 
32 | COc1ccc(S(=O)(=O)NCC(c2ccco2)N2CCOCC2)cc1OC (stereo not drawn) |  | inactive: 14.5% [at 46.1 µM]
33 | Nc1c(C(=O)OCC2CCCO2)c2nc3ccccc3nc2n1Cc1cccs1 (stereo not drawn) | inconclusive: 31.6 µM [inhibitor, single point] | 
34 | CC(O)C(NS(=O)(=O)c1ccc(Cl)cc1)C(=O)OCc1cc([N+](=O)[O-])cc2c1OCOC2 (stereo not drawn) | inconclusive: 35.5 µM [inhibitor, partial curve, poor fit] | 
35 | S=c1[nH]c(-c2ccccc2)cn1/N=C/c1ccc(Br)cc1 |  | inactive: -12.8%
36 | CC(Nc1c[nH]c(=O)[nH]c1=O)c1ccccc1 (stereo not drawn) |  | inactive: 4.64% [at 46.1 µM]
37 | COc1ccc(NC(=O)CN2CCN(C(=S)NC3CCCC3)CC2)cc1 | inconclusive: 3.98 µM [inhibitor, partial curve, poor fit] | 
38 | COc1ccc(Cn2ccc3nc(C)c(C(=O)NCc4ccc(F)cc4)cc3c2=O)cc1 | inconclusive: 1.12 µM [inhibitor, full curve, poor fit] | 
39 | COc1ccccc1CN1CC(C(=O)NCCN(C)CCc2ccccc2)CCC1=O (stereo not drawn) | active: 5.62 µM | 
40 | c1ccc(OCCOCCOc2ccccc2)cc1 |  | inactive: 1.9% [at 46.1 µM]
41 | CC(=O)Nc1ccc(N=Cc2c(O)n(Cc3ccco3)c(=O)[nH]c2=O)cc1 |  | inactive: 19.7%
42 | CC1=Nc2nc(N3CCCCC3)c(C#N)c3c4c(nc(c23)N1)N(c1ccc(C(C)C)cc1)C(=O)C4 | inactive | 
43 | O=C(Oc1c(Br)cc(C(=S)N2CCOCC2)cc1Br)c1ccc(Cl)cc1 | inconclusive: 20 µM [inhibitor, single point] | 
44 | COc1ccc(CCCC(=O)NCc2ccccc2)cc1C | active: 8.2 µM | 
45 | O=C(O)[C@H]1CCCC[C@H]1C(=O)Nc1ccc(S(=O)(=O)N2CCCCC2)cc1 |  | inactive: 26.8%
46 | Fc1ccc(-c2noc3ncnc(NCCCN4CCN(c5ccccc5)CC4)c23)cc1 |  | inactive: 7.85% [at 46.1 µM]
47 | Cc1cc(=O)[nH]c(SCC(=O)Nc2nnc(SCc3ccccc3)s2)n1 | inconclusive: 6.31 µM [activator, single point] | 
48 | O=C(O)c1cccc2c1Cc1cc(Cl)ccc1-2 | inconclusive: 25.1 µM [activator, single point] | 
49 | Cc1cc(=O)[nH]c(SCC(=O)Nc2ccc3c(c2)OCCO3)n1 | inconclusive: 35.5 µM [activator, single point] | 
50 | COc1ccc(/C=C2/Sc3ccc(C(=O)NCCCN4CCOCC4)cc3NC2=O)cc1OC |  | inactive: -9.19%

Quoted from the listing:
Value of CCOc1ccc(/C=N/NC(=O)CC(=O)Nc2ccc(Cl)c(Cl)c2)cc1 under Potency: inconclusive: 12.6 µM [inhibitor, single point]
Value of CCOc1ccc(-n2nc3ccc(NC(=O)c4ccc5c(c4)OCCO5)cc3n2)cc1 under Potency: inconclusive: 29.1 µM [inhibitor, single point]

Going on with the list:

Row | SMILES | Potency | activity change, negative = inhibition
51 | COc1ccc2cc(C3CC(c4ccco4)=NN3S(C)(=O)=O)c(Cl)nc2c1 (stereo not drawn) |  | inactive: 1.02%
52 | Nc1ccccc1C#Cc1ccc([N+](=O)[O-])cc1 | inconclusive: 1 µM [activator, full curve, poor fit] | 
53 | COc1ccc2nc(C)cc(N/N=C/c3cccc(OC)c3O)c2c1 | inconclusive: 35.5 µM [inhibitor, single point] | 
54 | COC(=O)c1ccc(OCC2c3cc(OC)c(OC)cc3CCN2C(=O)c2ccc(F)cc2)cc1 (stereo not drawn) | inconclusive: 8.91 µM [inhibitor, partial curve, poor fit] | 
55 | Cc1ccc(NC(=O)c2cc(-c3ccccc3O)n[nH]2)cc1Cl |  | inactive: 15.6% [at 46.1 µM]
56 | O=C(Nc1ccc(F)c(Cl)c1)c1cccnc1 | inconclusive: 8.91 µM [activator, partial curve, poor fit] | 
57 | Cc1ccc(NC(=O)CSc2nnc3scc(-c4ccccc4)n23)cc1 |  | inactive: 18.7% [at 46.1 µM]
58 | Cc1cc(C)nc(SSc2nc(C)cc(C)n2)n1 | inconclusive: 12.6 µM [inhibitor, single point] | 
59 | Cc1cccn2c(=O)c3cc(C(=O)NC(C)c4ccccc4)c(=N)n(CCCO)c3nc12 (stereo not drawn) | inconclusive: 35.5 µM [activator, single point] | 
60 | COc1ccc(C(C(=O)NC2CCCCC2)N(CC2CCCO2)C(=O)C2COc3ccccc3O2)cc1OC (stereo not drawn) |  | inactive: -12.3%
61 | O=C1CC(c2ccccc2)n2ncnc2N1 (stereo not drawn) | inconclusive: 0.184 µM [inhibitor, full curve, poor fit] | 
62 | COc1cc(C(=O)N/N=C(\C)c2ccccn2)cc(OC)c1OC | inconclusive: 0.794 µM [inhibitor, full curve] | 
63 | O=C(CNC(=O)c1ccc(S(=O)(=O)N2CCCC2)cc1)N/N=C/c1ccccc1 | inconclusive: 3.16 µM [inhibitor, single point] | 
64 | CCOC(=O)c1c(C)[nH]c(C)c1S(=O)(=O)N1CCCC(C(=O)N2CCN(c3ccccc3)CC2)C1 (stereo not drawn) |  | inactive: 0.56% [at 46.1 µM]
65 | CN1CCN(S(=O)(=O)c2cnc(Cl)c(Br)c2)CC1 |  | inactive: -2.4%
66 | O=C(COc1ccc2ccccc2c1Br)NC(=S)Nc1cccc(CO)c1 | inconclusive: 23.1 µM [inhibitor, single point] | 
67 | O=C(Nc1cccc(C(=O)N2CCCCC2)c1)c1ccccc1 | inconclusive: 3.15 µM [activator, single point] | 
68 | COC(=O)c1nccnc1C(=O)Nc1ccccc1N1CCOCC1 |  | inactive: 6.94% [at 46.1 µM]
69 | CC(=O)c1ccc(OCCCC(=O)N2CCN(S(=O)(=O)c3cc(C)ccc3C)CC2)cc1 | inconclusive: 35.5 µM [inhibitor, single point] | 
70 | CCN(CC)CCN(Cc1cc2cc3c(cc2[nH]c1=O)OCO3)C(=S)NCC1CCCO1 (stereo not drawn) |  | inactive: 1.5%
71 | Cc1c(C(=O)N(C)C)sc(NC(=O)c2cc([N+](=O)[O-])cc([N+](=O)[O-])c2)c1C#N | inconclusive: 31.6 µM [activator, single point] | 
72 | Cc1nn(-c2ccccc2)c(C)c1/C=N/NC(=O)c1cc(-c2ccccc2)n[nH]1 | inconclusive: 0.282 µM [inhibitor, full curve, poor fit] | 
73 | Cc1[nH]c2ccccc2c1-c1nc2ccccc2[nH]c1=O | inconclusive: 6.31 µM [inhibitor, single point] | 
